In experiment [1] the target is human SOST, deglycosylated (human) (UniProt Q9BQB4). Nature of the experiment: AUC; sedimentation velocity, 48,000 rpm, 20°C, 20 mM HEPES, 150 mM NaCl, pH 7.5; cSOSTDC1 at 500 µg/ml; c(s) and c(M) analysis in SEDFIT; both purified.
For experiment [2], the target named is human SOST, glycosylated (human) (UniProt Q9BQB4). Kind of experiment: cross-linking; 4 µg purified protein, 0.01% (v/v) glutaraldehyde, 20 min, room temperature, 20 mM HEPES, 150 mM NaCl, pH 7.5; non-reducing SDS-PAGE; self-association; both purified.
For experiment [3] the target is unchanged. Nature of the experiment: SEC; SEC of hSOST, Superdex S200 10/300, 20 mM HEPES, 1 M NaCl, 1 mM EDTA, pH 7.5 (final step of purification, Figure 6B); both purified.
Experiment [4] has the same target. Kind of experiment: AUC; sedimentation velocity, 48,000 rpm, 20°C, 20 mM HEPES, 150 mM NaCl, pH 7.5; cSOSTDC1 at 500 µg/ml; c(s) and c(M) analysis in SEDFIT; both purified.

The chains behind the UniProt entries cited, without tags or fusion partners. Residues count along the entry.
UniProt Q9BQB4, residues 24-213: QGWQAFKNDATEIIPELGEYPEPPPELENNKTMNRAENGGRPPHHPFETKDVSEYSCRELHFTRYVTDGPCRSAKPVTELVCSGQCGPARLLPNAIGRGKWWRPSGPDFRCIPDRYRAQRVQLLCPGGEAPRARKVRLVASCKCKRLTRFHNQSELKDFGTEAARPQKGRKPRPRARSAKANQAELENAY

No constants are given. Whether binding was seen depends on the method and setting.

Turning to “human SOST, deglycosylated (from UniProt Q9BQB4 24-213)”, in experiment [1], the binding entry is “no binding”.
In the case of “human SOST, glycosylated (from UniProt Q9BQB4 24-213)”, the binding result in experiment [2], in experiment [3] and in experiment [4] was “no binding” each time.

Values taken from paper PMC7473711, “Characterization of the different oligomeric states of the DAN family antagonists SOSTDC1 and SOST” (Biochemical Journal, 2020).
